# Tested on: activated sludge inoculum (non adapted microorganisms)
# Experiment: Ready biodegradability, manometric respirometry OECD 301F:1992
smiles,measurement,setting,value
CC(=O)[O-].[Na+] [Sodium Acetate],BOD value as % of the total,after 7 days,78.77%
same,BOD value as % of the total,after 14 days,88.31%
same,BOD Day 1,reference substance 50 mg/L,10.2 ppm
same,BOD Day 7,reference substance 50 mg/L,25.6 ppm
same,BOD Day 14,reference substance 50 mg/L,28.7 ppm
same,BOD Day 21,reference substance 50 mg/L,30.3 ppm
same,BOD Day 28,reference substance 50 mg/L,32.5 ppm
